Data on 1 molecule can be found in paper doi:10.1101/798603.

By UniProt entry, the sequences of proteins in these tests, tags left out.
UniProt P32497: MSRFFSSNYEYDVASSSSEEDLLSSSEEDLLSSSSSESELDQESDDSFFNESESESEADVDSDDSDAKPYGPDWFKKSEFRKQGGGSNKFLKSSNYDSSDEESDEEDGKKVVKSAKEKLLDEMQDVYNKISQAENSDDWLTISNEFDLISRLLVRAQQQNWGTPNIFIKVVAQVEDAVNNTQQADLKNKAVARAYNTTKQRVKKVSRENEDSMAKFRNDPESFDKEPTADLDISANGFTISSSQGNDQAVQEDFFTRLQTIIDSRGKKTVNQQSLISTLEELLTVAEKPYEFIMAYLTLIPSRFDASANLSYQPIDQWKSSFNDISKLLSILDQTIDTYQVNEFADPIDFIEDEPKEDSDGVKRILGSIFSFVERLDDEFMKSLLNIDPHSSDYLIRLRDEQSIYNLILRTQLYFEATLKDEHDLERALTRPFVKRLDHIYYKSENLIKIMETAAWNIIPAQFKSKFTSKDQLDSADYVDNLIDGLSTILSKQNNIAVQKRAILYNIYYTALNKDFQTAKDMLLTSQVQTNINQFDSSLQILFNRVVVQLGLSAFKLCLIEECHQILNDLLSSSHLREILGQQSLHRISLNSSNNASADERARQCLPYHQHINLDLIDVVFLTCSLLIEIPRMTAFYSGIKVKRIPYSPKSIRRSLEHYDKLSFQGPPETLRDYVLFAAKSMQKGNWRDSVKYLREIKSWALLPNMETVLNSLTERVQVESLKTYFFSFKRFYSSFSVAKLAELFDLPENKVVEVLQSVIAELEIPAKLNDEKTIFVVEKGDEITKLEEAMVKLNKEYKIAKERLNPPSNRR

Assay [1] addresses Nip1-TAP (S. cerevisiae (endogenous in yeast cells)) (UniProt P32497). The assay can be described thus: co-IP.
The target in assay [2] is T1, Pat1-TAP (S. cerevisiae (endogenous in yeast cells)) (UniProt P25644).
T1 sequence: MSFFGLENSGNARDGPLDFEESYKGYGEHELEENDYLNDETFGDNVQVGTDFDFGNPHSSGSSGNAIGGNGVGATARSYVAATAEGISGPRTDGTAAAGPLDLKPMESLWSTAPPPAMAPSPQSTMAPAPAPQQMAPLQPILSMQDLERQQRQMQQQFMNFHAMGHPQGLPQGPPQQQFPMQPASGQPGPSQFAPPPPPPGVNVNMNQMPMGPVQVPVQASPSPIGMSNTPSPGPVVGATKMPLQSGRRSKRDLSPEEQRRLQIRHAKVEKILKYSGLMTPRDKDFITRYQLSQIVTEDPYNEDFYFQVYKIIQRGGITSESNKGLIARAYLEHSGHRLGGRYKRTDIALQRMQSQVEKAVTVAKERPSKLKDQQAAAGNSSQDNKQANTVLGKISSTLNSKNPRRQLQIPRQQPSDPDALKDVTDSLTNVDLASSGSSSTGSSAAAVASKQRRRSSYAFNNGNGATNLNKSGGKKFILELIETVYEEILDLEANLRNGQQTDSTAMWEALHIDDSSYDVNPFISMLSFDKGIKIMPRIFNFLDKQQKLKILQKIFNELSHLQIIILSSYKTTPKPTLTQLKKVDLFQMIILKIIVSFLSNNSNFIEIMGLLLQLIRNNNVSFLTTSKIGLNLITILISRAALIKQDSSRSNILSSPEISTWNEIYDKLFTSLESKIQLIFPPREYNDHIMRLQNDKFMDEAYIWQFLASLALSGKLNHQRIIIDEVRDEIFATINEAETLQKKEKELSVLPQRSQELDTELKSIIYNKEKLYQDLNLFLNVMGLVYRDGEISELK
Briefly: co-IP.

These are yes or no findings as the source states them, for the method shown. Binding seen in cells or lysates may run through a third protein. Some entries that bind do so weakly or less than the wild type.

B1: Rpb7 (protein, UniProt P34087 1-171)
chain: MFFIKDLSLNITLHPSFFGPRMKQYLKTKLLEEVEGSCTGKFGYILCVLDYDNIDIQRGRILPTDGSAEFNVKYRAVVFKPFKGEVVDGTVVSCSQHGFEVQVGPMKVFVTKHLMPQDLTFNAGSNPPSYQSSEDVITIKSRIRVKIEGCISQVSSIHAIGSIKEDYLGAI
In the case of B1, the binding entry in assay [1] and in assay [2] was “binds” in each case.
